# Screening data, single-dose tests

By UniProt entry, the sequences of proteins in these tests, tags left out.
UniProt P9WPC5, whole entry: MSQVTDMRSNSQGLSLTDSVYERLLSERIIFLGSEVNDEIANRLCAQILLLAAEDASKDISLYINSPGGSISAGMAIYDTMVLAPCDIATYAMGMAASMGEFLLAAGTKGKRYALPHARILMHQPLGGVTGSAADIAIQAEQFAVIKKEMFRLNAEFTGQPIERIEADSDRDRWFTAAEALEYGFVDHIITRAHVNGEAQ
UniProt P9WPC3, whole entry partner: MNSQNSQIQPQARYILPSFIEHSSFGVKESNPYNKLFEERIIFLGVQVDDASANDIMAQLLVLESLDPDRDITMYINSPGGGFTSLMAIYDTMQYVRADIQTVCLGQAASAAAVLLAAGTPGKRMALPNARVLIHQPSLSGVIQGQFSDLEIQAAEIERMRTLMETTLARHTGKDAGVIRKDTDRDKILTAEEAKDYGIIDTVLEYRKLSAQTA

The values are deposited in ChEMBL (CHEMBL3988442, “University of Dundee, Small-Polar-MMV Screening Library” (2021)).

Toxoplasma: 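Assay of Toxoplasma gondii numbers, read through their beta-galactosidase reporter with a colour substrate. Compounds at 10 µM. Higher reads as fewer parasites (inferred from which compounds were picked for retests). Of about 67,000 compounds tested this way, about 260 (0.38%) reached 50% or more in at least one test.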
ClpP1P2: 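Protease assay of ClpP1P2, read by the AMC dye that it sets free. Target: ClpP1P2, Mycobacterium tuberculosis (UniProt P9WPC5 and UniProt P9WPC3). Compounds at 50 µM. Direction is inferred from only a few compounds that gave an IC50; most scored high, so higher reads as stronger inhibition. Most other retested compounds had strongly negative values. Size under these conditions: about 69,000 compounds, about 10 of them at 50% or above in at least one test.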
Leishmania in macrophages: 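Cell assay of Leishmania donovani living inside macrophages; the read-out is not stated. Concentration: 30 µM. The record gives no direction; compounds that gave an IC50 in retests scored well above the rest, so higher reads as stronger inhibition. Size under these conditions: about 69,000 compounds, about 1,000 of them at 50% or above in at least one test.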
T. brucei: 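Whole-parasite assay of Trypanosoma brucei over 72 hours; the read-out is not stated. Tested at 30 µM. Direction is inferred from retests: higher values go with stronger inhibition. Values scatter widely below zero; nearly all retest evidence comes from the higher of the two concentrations used. Size under these conditions: about 64,000 compounds, about 940 of them at 50% or above in at least one test.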

Values are the deposited “Percent Effect”, in %. How 0% and 100% were set is not recorded. Most values in the screen are low, and negative values occur. The compounds are a random part of those screened. Two or more numbers in one place are separate tests of the same structure; such repeats can differ widely. A dash means the value is not listed here; it may have been measured.

Compound,Toxoplasma,ClpP1P2,Leishmania in macrophages,T. brucei
Cc1ccc(C(=O)Nc2ccccc2F)n1C,-,2.839,20.96,-20.87
CC(CCc1ccc(O)cc1)NC1CCN(C(=O)C(C)C)CC1 (stereo not drawn),2.17,-3.162,1.207,4.412
Cc1cnc(C2CCCN(C(=O)c3c[nH]c(=O)[nH]c3=O)C2)s1 (stereo not drawn),4.395,10.44,10.21 and 18.33,-6.907
CN(CCC#N)C(=O)CN1CCCC1c1cccs1 (stereo not drawn),-12.12,-0.1049,43.06,-10.41
Cc1ccc(Br)cc1NC(=O)NCC(O)CO (stereo not drawn),-3.995,-4.743,3.442,-22.24
O=C(CC1CCc2ccccc21)N1CCC(O)(c2cccnc2)CC1 (stereo not drawn),1.957,-4.302,13.77,10.48
O=C(CCNc1ncccn1)N1CCCC(n2ccnc2)C1 (stereo not drawn),-2.418,4.988,23.91,28.27
COc1ccc2c(c1)OCC(C(=O)NCc1nc3c(s1)CCCC3)C2 (stereo not drawn),19.08,-9.241,17.33,-46.37
CCN1CCN(c2cncc(Cl)n2)CC1,11.83,-16.18,-0.02212,-39.75
NS(=O)(=O)c1ccc(CC(=O)N2CCCC(n3cccn3)C2)cc1 (stereo not drawn),0,-5.827,-14.8,13.99
CCOc1cccc(CNC(=O)c2cnn(CC)c2C(F)(F)F)c1,1.902,-11.72,31.2 and 30.65,-5.443
CC1(C)CN(C(CNS(N)(=O)=O)c2ccc(Cl)cc2)CCO1 (stereo not drawn),-22.46,-2.553,-5.286,-13.76
COc1ccccc1CCN(C)C(C)c1nc(-c2cccnc2)no1 (stereo not drawn),-8.606,-0.103,-25.93,-38.03
COc1cc(CN)c(OC)c2c1OCO2.Cl,-10.84,-,16.28,-25
Cc1nc(CN2C(=O)CC[C@@H]3[C@H]2CCN3C(=O)c2ccno2)cs1,-,0.7,-,-
CCn1nc(C)c(CN(CCCOC)Cc2ccccn2)c1C,-,6.157,-,-
O=C(COc1coc(CN2CCSCC2)cc1=O)c1ccccc1,-19.25,-2.189,40.21 and 11.52,-4.655
[H][C@@]12CCN(Cc3ccccn3)[C@@]1([H])CCN2C(=O)c1cnoc1C,10.64,-,7.679,-41.56
OCC1(O)CCCN(Cc2nnc(-c3ccccc3)o2)CC1 (stereo not drawn),-16.2,-14.75,9.332,-22.99
CS(=O)(=O)NC1CCCN(C(=O)Nc2ccccc2Cn2cccn2)C1 (stereo not drawn),-0.5508,6.44,-15.26,-56.86
CC(C)(C)c1n[nH]cc1CNCC1CCN(C2CC2)C1 (stereo not drawn),-,-10.7,-,-
Cc1nc(O)cc(CCNc2nc(N(C)C)nc(C)c2C)n1,1.063,7.245,-33.39,-74.66
CC(C)n1cnnc1CN(C)C(=O)C1CCCN(C2CCN(C)CC2)C1 (stereo not drawn),10.33,-5.351,7.786,-12.7
CCn1cc(CN2CCCN(C3Cc4ccccc4C3)CC2)c(C)n1,32.41,2.589,-9.453,-66.1
CN1CCn2c(-c3cnn(C)c3)cnc2C12CCN(CC1CC1)CC2.O=C(O)C(F)(F)F.O=C(O)C(F)(F)F.O=C(O)C(F)(F)F,-0.9278,-,6.309,-
CCOc1cc(C)nc(N2CCN(C(=O)c3cc(C)on3)CC2)n1,-21.67,-12.82,22.35,-16.53
COc1ccc(-c2noc([C@@H](C)NS(=O)(=O)CC(C)C)c2C(=O)O)cc1,-8.176,2.256,14.82,-8.104
Cc1noc(CCCC(=O)N(CC2CCOC2)C2CC2)n1 (stereo not drawn),-2.743,-1.553,-16.09,-18.95
CCn1nc(C)cc1C(=O)N1C[C@@H]2C[C@@H](c3nnc(C)[nH]3)O[C@@H]2C1,-,13.86,-,-
O=C1CSC(c2ccccc2)c2c(n(C3CCOCC3)[nH]c2=O)N1 (stereo not drawn),-11.36,-4.914,0.9656,-26.56
CN(C)C[C@H]1OC[C@@H]2CCN(C(=O)c3cccn3C)C[C@@H]21,-,-4.326,-,-
Cn1cccc1C(=O)N1CCN(Cc2ccncc2)c2ncccc2C1.O=C(O)C(F)(F)F.O=C(O)C(F)(F)F,3.739,-,-19.67,7.511
CC1CCCCN1C(=O)c1n[nH]c(=O)c2ccccc12 (stereo not drawn),-4.023,21.86,-0.2844,-7.93
O=C(NCC1CCS(=O)(=O)C1)c1sccc1-c1ccc(F)cc1 (stereo not drawn),4.519,-4.516,11.16,-24.14
Fc1ccc(C2(CNCC(F)F)CCOC2)cc1 (stereo not drawn),4.755,-8.989,7.422,-6.781
CSCc1noc(CNC(=O)C2CCN(C(=O)C3CCCC3)CC2)n1,8.917,-12.09,2.482,-13.96
CC(C)(O)CCc1cccc(C(=O)NCC2CN(S(C)(=O)=O)CCO2)c1 (stereo not drawn),-4.37,-4.072,18.89,-49.85
c1cc(NCc2ccncc2)nc(C2CCCNC2)c1 (stereo not drawn),-,-13.9,-,-
Cc1ccc(C(=O)N2CCCCC2c2[nH]ncc2S(C)(=O)=O)s1 (stereo not drawn),0.316,-13.03,-4.914 and -2.166,-27.83
COc1cc(-c2nc(C3CC3)nn2-c2ccnc(C)c2)nc(OC)n1,2.509,4.946,23.13,1.836
O=C(CCNCc1cc(O)c2cc(F)ccc2n1)N1CCCC1,2.634,-1.421,34.63,-42.31
Cc1ccc(N2CCCC3(COCCN(c4nccs4)C3)C2)nn1 (stereo not drawn),-,-4.293,-,-
CS(=O)(=O)CCC(=O)N1C[C@@H]2CC[C@H](C1)N(Cc1ccccc1)C2=O,-,6.926,-,-
CSCC[C@H](NC(C)=O)C(=O)N(C)Cc1ccc(-n2cccn2)cc1,3.581,11.12,-29.47,-81.5
CCn1nc(C)c2ncnc(N3CCCC(C)C3)c21 (stereo not drawn),16.85,11.69,17.45,-17.5

3 of the entries, repeated:

{"compound": "CC(CCc1ccc(O)cc1)NC1CCN(C(=O)C(C)C)CC1", "stereo": "stereo not drawn", "Toxoplasma": 2.17, "ClpP1P2": -3.162, "Leishmania in macrophages": 1.207, "T. brucei": 4.412}
{"compound": "CCn1cc(CN2CCCN(C3Cc4ccccc4C3)CC2)c(C)n1", "Toxoplasma": 32.41, "ClpP1P2": 2.589, "Leishmania in macrophages": -9.453, "T. brucei": -66.1}
{"compound": "CCn1nc(C)c2ncnc(N3CCCC(C)C3)c21", "stereo": "stereo not drawn", "Toxoplasma": 16.85, "ClpP1P2": 11.69, "Leishmania in macrophages": 17.45, "T. brucei": -17.5}